Source: PMC9277809
Results are given in words; binding and its absence hold for the method and conditions named. A result given as binding can be weak or reduced; the word gives no strength.

Assays:
[1] = biological target: T1, NRR (rice (Oryza sativa L.)) (UniProt Q5ZEF1); assay: two-hybrid; confirmation of single bait-E3 pairs in yeast; growth on DDO (SD-Leu-Trp) and QDO (SD-Leu-Trp-His-Ade); called yeast co-transformation assay for OsPAL1-OsFBK16
T1 sequence: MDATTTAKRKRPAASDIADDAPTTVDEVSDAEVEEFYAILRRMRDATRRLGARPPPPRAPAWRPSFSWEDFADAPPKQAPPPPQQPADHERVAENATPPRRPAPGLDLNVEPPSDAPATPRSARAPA

[2] = biological target: T1, NRR (rice (Oryza sativa L.)); assay: two-hybrid; library screen: AH109 carrying the pGBKT7-bait mated with Y187 carrying the pGADT7-UbE3 library (1499 E3 ORFs) at 30 °C for 20-24 h; selection on SD-Leu-Trp-His-Ade; positive clones identified by PCR and sequencing

Substance	binding [1]	binding [2]
HBTB8	binds	binds
OsFBX68	binds	binds
OsFBX82	binds	binds
OsFBX389	binds	binds
OsPUB69 (enzyme)	binds	binds
